“And” between values parts separate entries of the source, which are not always exact repeats. Identical values can stand only once. The list shows a part of the results. Shown are side measurements of this screen, not its main read-out; they come without a call. Most of these compounds were active or inconclusive in the main read-out, so they are no random draw. Words in brackets tell the shape of the fitted curve; partial curves, single points and poor fits give uncertain potencies.

A short description of the test: qHTS Assay for Lipid Storage Modulators in Drosophila S3 Cells.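 For cell number change: cells counted by Cell Tracker Red CMTPX staining in the red channel.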 The following applies: BODIPY lipid droplet fluorescence, 18-24 h; for cell number change: measured here: cell count max response, cells fed with added oleic acid. The method, boiled down:
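Drosophila S3 cells got compounds at several concentrations plus oleic acid (400 uM solution). Laser-scanning cytometry with 488 nm excitation read lipid droplets at 500-530 nm and cells at 575-640 nm. Percent activity was relative to 20 uM Triacsin C.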
(Quantitative high-throughput screening tests each substance at several concentrations.)

Setting [1] is: measured here: cell number channel AC50, cells fed with added oleic acid.
The mark [2] stands for this setting: measured here: lipid fluorescence (Fed channel) AC50, cells fed with added oleic acid.

In the case of `CCOC(=O)C1CC(c2ccc(Cl)cc2)=NNC1=O` (stereo not drawn), the cell number change is -16.4%.
On to `O=c1c(=Nc2ccccc2O)c(=O)c2ccccc12`, for which the cell number change was -48.1%. Under setting [1], the AC50 (usually the concentration giving half of the maximal activity seen) was 1.64 µM [falling, partial curve, poor fit]. Under setting [2], the half-maximal activity concentration (AC50) is 1.3 µM [falling, full curve].
With `COc1ccc(Br)cc1C(=O)NC(=S)Nc1cc(-c2nc3ccccc3[nH]2)ccc1C`, the cell number change came out at 2.51%.
Turning to `Cc1ccccc1C(=O)NC(=S)Nc1ccc(S(=O)(=O)N(C)c2ccccc2)cc1`, the cell number change was -1.25%. For the same molecule, the AC50 under setting [1] was 0.326 µM [rising, full curve]. Besides, the concentration at half-maximal activity (AC50) under setting [2] is 1.46 µM [rising, full curve].
With `COc1ccc(C(=O)NC2CC2)cc1OC1CCN(Cc2ccc(Cl)cc2)CC1`, the cell number change worked out at 10.7%.
Take `COc1ccccc1/C=C1\SC(=S)N(CC(=O)Nc2nnc(C)s2)C1=O`: the cell number change was -34.6%. Further, under setting [1], the AC50 was 29.1 µM [falling, single point].
With `O=C(CSCC(=O)N1CCCCC1)Nc1nc(-c2ccc(Cl)s2)cs1`, the cell number change turned out to be 2.27%. Besides, the AC50 under setting [1] was 0.731 µM [falling, single point]. The half-maximal activity concentration (AC50) under setting [2] is 0.731 µM [falling, single point].
Take `CCN(CC)c1nc(N)c2c(N)n(-c3ccccc3C)c(=S)c(C#N)c2c1C#N`: the cell number change worked out at 34.7%. Under setting [1], the AC50 was 0.0092 µM [rising, full curve, poor fit].
In the case of `CC(C)Oc1ccc(CNC(=S)N/N=C/c2ccc([N+](=O)[O-])cc2)cc1`, the cell number change is -16.3%. Also, the AC50 under setting [2] was 6.51 µM [falling, partial curve, poor fit].
Turning to `Cn1c(=O)n(C/C=C/c2ccccc2)c(=O)c2c1nc1n2CCCN1Cc1ccccc1`, the cell number change is -16.5%.
Take `COc1ccc(CCNC(=O)CN(CCc2ccccc2)S(C)(=O)=O)cc1`: the cell number change was -38.1%. In addition, under setting [1], the AC50 is 16.4 µM [falling, partial curve, poor fit]. Besides, under setting [2], the AC50 was 6.51 µM [falling, single point].
For the molecule `COc1ccc(C2CC(c3ccccc3)=NN2S(=O)(=O)c2ccc(C)cc2)c(OC)c1` (stereo not drawn), under setting [2], the AC50 is 6.51 µM [rising, single point].
With `O=[N+]([O-])c1ccc(-c2nc(=S)c3c(o2)CCCC3)cc1`, the cell number change was -12.5%. Also, the AC50 under setting [2] is 0.00517 µM [falling, full curve, poor fit].
As for `CC(=O)NS(=O)(=O)c1ccc(NC(=O)C(Sc2ccccc2)c2ccccc2)cc1` (stereo not drawn), the AC50 under setting [2] was 0.82 µM [rising, single point].
In the case of `CC(C)(C)c1cc(CCC(=O)N2CCC2)cc(C(C)(C)C)c1O`, the cell number change was -1.08%.
On to `CCC(C)(C)NC(=O)C(c1cccc(OC)c1OC)N(Cc1ccc(OC)cc1)C(=O)CCC(=O)Nc1cc(C)on1` (stereo not drawn), for which the cell number change was -17.9%. The AC50 under setting [2] was 6.51 µM [falling, single point].
On to `Cc1ccc(S(=O)(=O)NC(=O)NCCCN2CCOCC2)cc1`, for which the cell number change turned out to be 27.3%.
Consider `CCOC(=O)C1CCN(C(=O)CN(c2ccc3c(c2)OCCO3)S(=O)(=O)c2ccccc2)CC1`, for which the cell number change turned out to be 72.7%. Also, the AC50 under setting [1] is 9.2 µM [rising, partial curve].
As to `COc1cccc(C2=NOC(C(=O)NCCN3CCOCC3)C2)c1` (stereo not drawn), the cell number change was -7.13%. Besides, the AC50 under setting [1] was 3.66 µM [rising, single point].
With `Cc1ccc(S(=O)(=O)NC(=O)Nc2ccc(C)cc2C)cc1`, the cell number change is -5.95%. Also, the AC50 under setting [2] was 29.1 µM [falling, single point].
On to `COc1ccc(OC)c(NC(=O)c2cccc(NC(=O)c3ccccc3)c2)c1`, for which the cell number change was -26.4%. Besides, the AC50 under setting [2] was 16.4 µM [falling, single point].
Consider `O=C(Nc1c(-c2ccccc2)nc2c(Br)cc(Br)cn12)c1ccco1`, for which the cell number change was 69.3%. The AC50 under setting [1] is 5.8 µM [rising, partial curve, poor fit]. For the same molecule, the AC50 under setting [2] is 5.17 µM [falling, single point].
Turning to `C=CCNC(=O)C1CCN(c2ccc(S(=O)(=O)N3CCOCC3)cc2[N+](=O)[O-])CC1`, the cell number change is -46.1%. Besides, under setting [1], the AC50 was 6.51 µM [falling, single point]. Under setting [2], the AC50 was 6.51 µM [falling, single point].
On to `Nc1c(-c2ccccc2)cnc2c(-c3ccccc3)cnn12`, for which the cell number change amounted to 1.65%. Under setting [2], the AC50 was 20.6 µM [rising, single point].
Regarding `COc1ccc(CNC(=O)C2CCC(CNC(=O)[C@@H]3Cc4ccccc4CN3)CC2)cc1` (stereo partly drawn), the cell number change was 36.3%. In addition, under setting [1], the concentration at half-maximal activity (AC50) is 0.082 µM [rising, full curve]. The AC50 under setting [2] was 29.1 µM [rising, single point].
Regarding `COc1ccc(C(=O)NC(=S)Nc2ccc3c4c(cccc24)CC3)cc1OC`, the cell number change is -59.1%. Moreover, under setting [1], the AC50 is 32.6 µM [falling, single point]. The AC50 under setting [2] is 32.6 µM [falling, single point].
For `COC(=O)c1ccc(COn2nnc3ccccc32)cc1`, the half-maximal activity concentration (AC50) under setting [2] is 0.58 µM [falling, single point].
Turning to `O=C(NCC(=O)N(Cc1cccs1)C(C(=O)NC1CCCC1)c1cccnc1)c1ccco1` (stereo not drawn), the cell number change is -34%. Besides, the concentration at half-maximal activity (AC50) under setting [1] is 0.164 µM [falling, full curve, poor fit].
In the case of `Cc1ccc(CNC(=O)C2CCN(S(=O)(=O)c3c(C)noc3/C=C/N(C)C)CC2)cc1`, the cell number change was -7.55%. The AC50 under setting [2] was 0.00517 µM [rising, full curve, poor fit].
Turning to `CN(C(=O)c1ccc(NC(=O)Cc2ccc(NC(=O)C3CCCN(C(=O)c4ccccc4)C3)cc2)cc1)C1CC1` (stereo not drawn), the cell number change is -21.8%.
Take `O=C(CCc1c[nH]c2ccccc12)Nc1ncccc1O`: the cell number change is 23.4%. The AC50 under setting [2] was 16.4 µM [rising, partial curve, poor fit].
Consider `CC(=O)n1nc(-c2ccncc2)nc1SCC(=O)Nc1cccc(Cl)c1`, for which the cell number change is -11.1%. Moreover, the AC50 under setting [2] was 0.58 µM [falling, single point].
As for `CC(=O)N1CC(C)Sc2ccc(S(=O)(=O)NCc3ccc(F)cc3)cc21` (stereo not drawn), under setting [2], the AC50 was 0.146 µM [rising, full curve, poor fit].
Take `COc1ccc(CSc2ccc(-c3nc4ccccn4c3NCc3ccccc3)cc2OC)cc1`: the cell number change was -28.6%.
For the molecule `Cc1cc2oc(C(=O)Nc3ccc(S(=O)(=O)Nc4ncccn4)cc3)c(C)c2cc1Cl`, the AC50 under setting [2] was 6.51 µM [rising, single point].
As for `COc1cccc(-n2c(-c3ccco3)nc3nc4ccccc4nc32)c1`, the cell number change was found to be 39.5%. Under setting [1], the concentration at half-maximal activity (AC50) was 20.6 µM [rising, single point]. The AC50 under setting [2] is 14.6 µM [rising, single point].
Take `CCCOc1ccc(-c2nn(-c3ccccc3)cc2/C=C2\SC(N)=NC2=O)cc1`: the cell number change is -0.583%. Under setting [2], the AC50 was 29.1 µM [rising, single point].
Consider `CCN(CC)S(=O)(=O)c1ccc2c(c1)N(CC(=O)N1CCN(c3ccc(F)cc3)CC1)C(=O)CO2`, for which the cell number change stood at 14.6%. The AC50 under setting [2] is 29.1 µM [rising, single point].
In the case of `CCCN(CCC)C(=O)Cn1c(=O)c2ccccc2n2c(=S)sc(-c3ccccc3C)c12`, the cell number change was -50.8%. In addition, under setting [1], the AC50 is 3.26 µM [falling, full curve, poor fit]. In addition, the concentration at half-maximal activity (AC50) under setting [2] was 6.51 µM [rising, partial curve].
In the case of `COC(=O)C1(c2ccccc2)NC(c2ccc(O)cc2)C2C(=O)N(c3ccc4c(c3)OCO4)C(=O)C21` (stereo not drawn), the cell number change was -6.12%. Further, the AC50 under setting [2] was 0.058 µM [falling, full curve, poor fit].
`OCCN1CCN(c2ncnc3nc[nH]c23)CC1`: the cell number change was -21.3%. For the same molecule, the AC50 under setting [2] was 23.1 µM [falling, partial curve].
In the case of `N#CC1=C(N)Oc2ccc3ccc(O)cc3c2C1c1cccnc1` (stereo not drawn), the cell number change turned out to be 1.52%. Also, the AC50 under setting [2] was 13 µM [rising, partial curve].
In the case of `CCCc1cc(NCCCn2ccnc2)n2nc(C)c(-c3ccccc3)c2n1`, the cell number change was -30%. Moreover, the AC50 under setting [2] was 29.1 µM [falling, single point].
Take `COc1cc2cc(CN(Cc3cccs3)C(=S)Nc3ccc(C)cc3)c(=O)[nH]c2cc1OC`: the cell number change came out at 15.4%. The AC50 under setting [1] is 2.91 µM [rising, partial curve]. The AC50 under setting [2] is 0.092 µM [rising, full curve, poor fit].
As to `COc1cccc(NC(=S)Nc2cccc3ccccc23)c1`, the cell number change was -41%.
As to `O=C(COc1ccc(NC(=O)c2cccs2)cc1)c1ccc(F)cc1`, the cell number change was 6.31%. Also, under setting [2], the half-maximal activity concentration (AC50) is 13 µM [falling, partial curve].
Turning to `CNc1ccc(Br)cc(C(=O)/C=C/c2ccc(Cl)cc2Cl)c1=O`, the cell number change is -59.1%. For the same molecule, under setting [1], the AC50 was 5.17 µM [falling, full curve]. The AC50 under setting [2] is 8.2 µM [falling, partial curve].
On to `COc1ccc(N2C(=O)CSC2c2ccc3c(c2)OCO3)cc1` (stereo not drawn), for which the cell number change was found to be 18.9%. Besides, the AC50 under setting [1] is 2.59 µM [rising, single point].
As for `CC(C)C(=O)Nc1nnc(COc2ccc(Cl)cc2)s1`, the cell number change is 32.1%. For the same molecule, the AC50 under setting [1] is 23.1 µM [rising, single point].
For `COc1cccc(NC(=O)CSc2nc(=O)n(CCN(C)C)c3c2CCCC3)c1`, the cell number change is -25%. Also, the AC50 under setting [1] is 0.00461 µM [falling, full curve].
In the case of `CCCOc1ccc(NC(=O)CC2C(=O)N(C)C(=S)N2Cc2ccc3c(c2)OCO3)cc1` (stereo not drawn), the cell number change is -7.12%. Besides, the AC50 under setting [2] is 2.59 µM [rising, partial curve].
Regarding `COC(=O)C1=C(C)N(Cc2ccccc2)C(=NCCc2cccnc2)N[C@H]1c1ccccc1`, the cell number change is 29.1% and 1.16%. Also, under setting [2], the concentration at half-maximal activity (AC50) is 16.4 µM [falling, single point].
For the molecule `O=C(Nc1cccnc1Cl)C1CCCN(c2ncnc3c2nc2n3CCCCC2)C1` (stereo not drawn), the cell number change is -33.9%. Further, the AC50 under setting [2] was 29.1 µM [falling, single point].
Take `CCOC(=O)c1cc(-c2ccccc2)n(CC(=O)Nc2cc(OC)cc(OC)c2)c1C`: the cell number change was found to be 18.4%. In addition, under setting [2], the concentration at half-maximal activity (AC50) was 29.1 µM [rising, single point].
For the molecule `Cc1cccc(NC(=O)c2ccc(S(=O)(=O)NCc3cccnc3)cc2)c1`, the cell number change stood at 6.41%. For the same molecule, under setting [2], the AC50 is 5.17 µM [rising, single point].
In the case of `CCC(Oc1ccc(C)cc1)C(=O)Nc1ccc(S(=O)(=O)Nc2cc(C)on2)cc1` (stereo not drawn), the cell number change came out at 10.4%. Further, under setting [2], the AC50 was 0.58 µM [rising, single point].
With `COc1cc(-c2ccc(Nc3ccccc3C(=O)O)c(OC)c2)ccc1Nc1ccccc1C(=O)O`, the cell number change is -35.6%. Further, the AC50 under setting [1] was 23.1 µM [falling, single point]. Under setting [2], the half-maximal activity concentration (AC50) is 0.146 µM [rising, full curve, poor fit].

Source of the values: PubChem BioAssay AID2685 (National Center for Advancing Translational Sciences (NCATS), 2010).
